# From publication PMC5996148
# The chains behind the UniProt entries cited, without tags or fusion partners. Where a name states a change or a piece, a line headed by the entry shows the natural chain unless it says otherwise.
# UniProt Q9H3H9: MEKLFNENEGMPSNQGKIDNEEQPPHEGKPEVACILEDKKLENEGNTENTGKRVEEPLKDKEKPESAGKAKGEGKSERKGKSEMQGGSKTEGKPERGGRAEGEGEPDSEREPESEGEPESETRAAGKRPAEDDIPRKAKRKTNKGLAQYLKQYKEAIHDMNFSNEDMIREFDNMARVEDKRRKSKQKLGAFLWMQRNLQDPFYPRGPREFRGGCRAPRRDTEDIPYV
# This is one part of the list. For some of these results: The source does not settle which construct or isoform was used.
# Tests used:
# Assay in all cases: protein microarray (ProtoArray v5.0), streptavidin-Alexa Fluor 647
# Details in all cases: 3'-biotin; 20 mM Tris (pH 7.5), 5 mM MgCl2, 100 mM KCl, 0.1% Tween-20, A/T-rich and random oligonucleotide blockers; temperature not stated; high values mean tight binding
# [1] = system: TBL1X (human)
# [2] = system: TBXAS1 (human)
# [3] = target: TCEAL2 (UniProt Q9H3H9)
# [4] = system: TCP11 (human)
# [5] = system: TCP11L1 (human)
# [6] = system: TEAD4 (human)
# [7] = target: T1, TEKT4 (UniProt Q8WW24)
# T1 sequence: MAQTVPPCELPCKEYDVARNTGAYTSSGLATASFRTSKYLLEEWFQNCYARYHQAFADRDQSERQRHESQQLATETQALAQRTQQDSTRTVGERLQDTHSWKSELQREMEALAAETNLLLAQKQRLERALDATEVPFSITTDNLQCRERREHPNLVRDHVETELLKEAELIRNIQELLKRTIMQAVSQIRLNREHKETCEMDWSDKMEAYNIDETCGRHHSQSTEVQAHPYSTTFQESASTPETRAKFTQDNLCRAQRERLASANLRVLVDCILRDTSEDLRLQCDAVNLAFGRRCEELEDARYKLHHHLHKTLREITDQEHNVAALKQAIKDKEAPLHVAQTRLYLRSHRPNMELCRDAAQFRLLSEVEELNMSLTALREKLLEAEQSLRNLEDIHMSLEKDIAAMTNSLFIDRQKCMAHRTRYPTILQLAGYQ
# [8] = system: TESC (human)
# [9] = system: TEX13B (human)
# [10] = system: TF (human)
sequence,measurement,setting,value
GGGGACAGGGGTATGGGGAGGGG [G4-3 biotinylated (CtG)],binding signal,[1],-0.333 z-score
same,binding signal,[2],-0.305 z-score
same,binding signal,[3],4.59 z-score
same,binding signal,[4],-0.337 z-score
same,binding signal,[5],-0.337 z-score
same,binding signal,[6],-0.318 z-score
same,binding signal,[7],-0.316 z-score
same,binding signal,[8],-0.328 z-score
same,binding signal,[9],-0.338 z-score
same,binding signal,[10],-0.333 z-score
